From US20100143940A1, “(3R)-HYDROXYACYL-ACP DEHYDRATASE ENZYMES USED IN THE BIOSYNTHESIS OF MYCOLIC ACIDS AND USE OF SAME FOR SCREENING ANTIBIOTICS” (priority 2007, published 2010)
Results are given in words; binding and its absence hold for the method and conditions named. Some binding calls cover weakened binding; strength is not graded here. Where a sequence is shown, tags or fusion partners need not be part of it.

Protein sequences, listed by entry. Tags and fused reporters are not part of them. Lines headed by an entry give the natural chain unless they say otherwise; changes in a name come on top.
UniProt P9WFK0: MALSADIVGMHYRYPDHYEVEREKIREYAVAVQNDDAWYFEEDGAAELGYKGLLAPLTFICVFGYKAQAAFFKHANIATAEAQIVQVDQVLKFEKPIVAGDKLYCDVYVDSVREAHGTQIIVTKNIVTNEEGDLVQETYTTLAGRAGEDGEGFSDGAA

Experiments:
[1] = molecular target: T1, Rv0636 protein of M. tuberculosis H37Rv (no tag, coexpressed with H-Rv0635) (M. tuberculosis H37Rv); assay: summary of the coelution and light scattering results
T1 sequence: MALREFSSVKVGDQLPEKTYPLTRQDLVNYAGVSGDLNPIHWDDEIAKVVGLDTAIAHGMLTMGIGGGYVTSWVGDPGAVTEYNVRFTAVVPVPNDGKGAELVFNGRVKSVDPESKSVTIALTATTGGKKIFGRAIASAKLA

[2] = molecular target: T1, Rv0636 protein of M. tuberculosis H37Rv (no tag, coexpressed with H-Rv0635) (M. tuberculosis H37Rv); assay: dynamic light scattering of the Rv0635-Rv0636 complex, 20 mg/ml
[3] = molecular target: T1, Rv0636 protein of M. tuberculosis H37Rv (no tag, coexpressed with H-Rv0635) (M. tuberculosis H37Rv); assay: coelution on Ni Sepharose and Superdex 75 exclusion column, SDS-PAGE

Measured: binding

Rv0635 protein of M. tuberculosis H37Rv fused with the N-terminal polyhistidine tag (from UniProt P9WFK0 2-158)
binds: [1] | [2] | [3]
